LdMetRS: 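Primary screen of methionyl-tRNA synthetase; the read-out is not stated. Target: Methionyl-tRNA synthetase (putative), Leishmania donovani (UniProt E9BF75). The test concentration is not given. Values are per cent inhibition. Size under these conditions: about 68,000 compounds, about 24 of them at 50% or above in at least one test.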
Mtb heat-shock: 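Assay on Mycobacterium tuberculosis, filed only as a heat shock assay from Cornell; the read-out is not stated. The concentration is filed as 10 mM, unlikely as a test dose, so the dose is not known. Higher reads as stronger inhibition (inferred: compounds with an IC50 in retests scored well above the rest). About 69,000 compounds were tested under these conditions; 1.4% (about 930) showed 50% or more at least once.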

The chains behind the UniProt entries cited, without tags or fusion partners.
UniProt E9BF75, entry or part of it: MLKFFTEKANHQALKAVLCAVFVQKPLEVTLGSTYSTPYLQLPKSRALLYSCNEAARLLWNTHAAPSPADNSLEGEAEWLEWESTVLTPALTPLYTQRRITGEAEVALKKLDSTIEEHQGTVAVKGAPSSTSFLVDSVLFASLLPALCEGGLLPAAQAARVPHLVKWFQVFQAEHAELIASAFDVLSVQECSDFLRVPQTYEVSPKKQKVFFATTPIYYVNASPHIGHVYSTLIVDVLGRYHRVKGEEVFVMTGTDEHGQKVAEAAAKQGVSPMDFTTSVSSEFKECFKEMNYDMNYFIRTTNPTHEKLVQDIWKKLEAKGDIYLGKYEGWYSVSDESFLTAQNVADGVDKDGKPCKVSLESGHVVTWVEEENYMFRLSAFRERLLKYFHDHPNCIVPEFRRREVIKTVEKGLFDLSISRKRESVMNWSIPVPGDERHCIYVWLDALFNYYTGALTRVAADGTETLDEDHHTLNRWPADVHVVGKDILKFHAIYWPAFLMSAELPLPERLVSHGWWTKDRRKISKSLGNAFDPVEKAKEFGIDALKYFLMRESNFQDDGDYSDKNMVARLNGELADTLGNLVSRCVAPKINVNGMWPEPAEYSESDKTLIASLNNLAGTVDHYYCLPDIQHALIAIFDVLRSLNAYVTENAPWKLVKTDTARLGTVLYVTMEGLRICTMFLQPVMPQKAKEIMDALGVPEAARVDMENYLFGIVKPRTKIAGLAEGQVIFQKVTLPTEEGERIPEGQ

All values are in %. The controls that fix the scale are not given in the record; negative values are as filed. The compounds are a random part of those screened. A dash means the value is not listed here; it may have been measured.

structure,LdMetRS,Mtb heat-shock
CC(C)C(C(=O)N(C)C)c1cccc(Cl)c1 (stereo not given),3.343,3.369
O=C1NC(C(=O)NCc2cccnc2Oc2ccc(F)c(F)c2)CO1 (stereo not given),22.29,-22.7
Cn1cc(CN2CC3(CCN(C(=O)c4ccoc4)C3)C2)cn1,6.5,10.05
Cc1n[nH]c(C)c1CC(=O)NCCc1ccccc1,2.842,-6.199
CC(=O)c1cnc(NCCCN2CCOCC2)nc1C,12.06,8.199
CC(C)Nc1ncnc2c1CCN(Cc1nccn1C)CC2,5.764,-
[H][C@]12CC[C@]([H])(CN(Cc3ccccc3)C1)N(C(=O)c1cnc(SC)nc1)C2,-,45.86
Cc1ccc(N2CCC3(CC2)COCCN(c2nccs2)C3)nn1.O=C(O)C(F)(F)F.O=C(O)C(F)(F)F,-,-10.25
O=C(O)c1cnc(N2CCC(O)CC2)nc1COc1cccc(F)c1,-9.84,8.993
c1ccc(OCC2CC3(CCN(Cc4ccncc4)CC3)CO2)nc1 (stereo not given),13.69,1.402
[H][C@@]12CO[C@@H](CNC(=O)c3ccco3)[C@]1([H])CCN(c1ccc(C)nn1)C2,-,5.026
CCc1nc(-c2cccc(C(=O)O)c2)no1,2.432,-22.4
COc1cccn(Cc2nnc(-c3cccc(F)c3)o2)c1=O,4.902,-1.145
OCCN1CCN(CCOCC(F)(F)F)CC1,5.076,-11.25
Cc1noc(C)c1CN1Cc2cn(C)nc2C(COCC2CC2)C1 (stereo not given),-1.587,-
C[C@H](c1ccc(F)cc1)n1c(C2CCN(C)CC2)n[nH]c1=O,2.933,-10.9
N#CCCN(CCC#N)C(=O)CN(C1CC1)C1CCc2ccccc21 (stereo not given),-2.611,-19.81
CCC1CCC(N(Cc2cc(=O)n(C)c(=O)n2C)C2CC2)CC1 (stereo not given),4.178,25.34
[H][C@@]12COC[C@]1([H])[C@H](NC(=O)C1CCC1)CN2Cc1cccc(C)n1,-,29.89
COCc1nc(NC(C)c2c(C)n[nH]c2C)c2cnn(C)c2n1 (stereo not given),16.75,3.287
Fc1ccc(CN2CCCC(c3nnc(-c4cnccn4)o3)C2)cc1F (stereo not given),11.99,9.729
CN1CCCC2(CCN(C(=O)Cn3ncc4ccccc4c3=O)C2)C1=O (stereo not given),4.974,-20.25
Cc1nn(C)c(C)c1CC(=O)NCc1ccnc(OC2CCCC2)c1,7.317,-0.3898
COc1cccc(CN2CC[C@H](NC(C)=O)[C@@H](O)CC2)c1F,9.04,-6.302
COCCN1CCN(CC(=O)N(C)Cc2ccsc2)CC1C (stereo not given),14.34,0.9368
CCN(CC)S(=O)(=O)NCC(O)c1c(Cl)cccc1Cl (stereo not given),18.99,9.234
CCOC(=O)[C@]12CCCN(Cc3cccs3)C[C@H]1CN(C(C)C)C2,12.09,-
Cc1nc(CO[C@@H]2CN(Cc3ccsc3)[C@@H]3COC[C@@H]32)cs1,20.62,-
O=C(NC1CC1)c1ccn(COc2c(Cl)cccc2Cl)n1,13.31,10.36
NC(=O)c1cn(CC2CC2)c(C2CC2)n1,-3.89,-6.019
[H][C@]12CC[C@]([H])(CN(C3CCOCC3)C1)N(Cc1ccc(N(C)C)nc1)C2,-,33.4
CCC1CN(Cc2c(O)ccc3oc4c(c23)CCCC4)CCO1 (stereo not given),1.394,18.83
CC(C)N1CCOC(CC(=O)N2CCCN(Cc3cccs3)CC2)C1 (stereo not given),17.49,-4.469
CC(NCCCC#N)c1ccc(S(C)(=O)=O)c(F)c1 (stereo not given),1.882,-36.77
O=C(CCc1ccccn1)N1CCc2cc(Cl)cc(Cl)c2C1,-0.7874,28.28
Cc1ccsc1CN(CCN(C)C)C(=O)c1cc2ccccc2[nH]1,4.467,-20.57
CSc1ccc(C(=O)N2CC(=O)N(CC3CC3)CC(O)C2)cc1 (stereo not given),10.68,13.44
CN(Cc1ccco1)[C@@H]1CN(C(=O)c2ccnnc2)[C@@H]2CCCO[C@H]12,13.5,-
O=C(c1ccsc1)N1CCc2onc(COc3ccccn3)c2C1,6.266,-
CCn1c(CN2CCOC(Cn3cncn3)C2)nc2cc(F)ccc21 (stereo not given),9.42,18.5
O=C(O)C(F)(F)F.[H][C@]12CCC[C@@H](CNc3ccccn3)[C@@]1([H])CN(Cc1cc[nH]n1)C2,-,5.648
Cc1nsc2ncc(C(=O)N3CCCC3c3cnn(C)c3)cc12 (stereo not given),8.434,-5.809
[H][C@]12CC[C@@]3(N=C(C)N(CC)C3=O)[C@@]1([H])CN(C(=O)Nc1ccc(F)cc1)C2,-,-36.01
Cn1ccc2c(C(=O)NC3CN4CCC3CC4)cccc21 (stereo not given),13.03,-2.636
CC(C)NC(=O)CCNC(=O)CCc1cc(Br)cs1,16.99,-28.44
COCCn1cnnc1CNc1cc(C)nc2c(C)c(C)nn12,9.747,44.3
Cc1ccc(C(CNC(=O)c2c(C)noc2C(C)C)N(C)C)cc1 (stereo not given),18.89,-15.75
CCn1nnc2c1C(COCCN(C)C)CN(Cc1ccco1)C2 (stereo not given),1.639,-
CCCN1CCCC2(CCN(c3nc(C)nc4ccsc34)C2)C1=O (stereo not given),2.465,-3.168
[H][C@@]12CN(C(C)=O)C[C@]1(C(=O)N(C)C)CCC21CCN(S(C)(=O)=O)CC1,-,-1.639
COCCN1C(=O)C[C@H]2[C@H]1CCN2Cc1ccc(OC)cc1,10.1,-
CC(c1ccncc1)N(C)S(C)(=O)=O (stereo not given),11.2,-2.759
CCn1nnc2c1CCN(S(C)(=O)=O)C2COCc1ccccc1 (stereo not given),4.498,-11.69
CC(C)[C@H]1CN(Cc2ccncc2)C[C@@H]1NC(=O)C1(C#N)CCOCC1,13.51,-10.59
Cc1nc(C2CN(C)CCO2)cc(N2CCSCC2)n1 (stereo not given),-2.589,-33.74
COc1ccc(C(C)NCc2nnc(C)s2)cc1F (stereo not given),14.97,-8.544
COCCCN(Cc1ccncc1)c1ncc(C#N)cc1Cl,2.156,-5.297
O=C(O)C(F)(F)F.[H][C@]12CC[C@@]3(N=C(C)N(CC4CC4)C3=O)[C@@]1([H])CN(Cc1ccccc1F)C2,-,-4.469
CCNc1nc(C)c(C(=O)N(C)Cc2nc(-c3ccncc3)no2)s1,4.267,-12.52
CN(C(=O)CNCCn1cccn1)C1(C#N)CCCCC1,14.34,0.05278
CN1CC2(CCC1=O)CCN(CC[C@@H](O)c1ccccc1)CC2,-4.375,-26.92
O=C(c1cccn1Cc1cccs1)N1CCN(C2CC2)CC1,15.79,-30.01
CN1CCN(c2ccc(NC(=O)c3ccccn3)c(C(F)(F)F)c2)CC1,5.108,-19.43
CN(C)S(=O)(=O)c1ccc(CN2CCCC2c2cccs2)o1 (stereo not given),13.13,-21.23
CCN(CCNC(=O)C1CCN(C(C)=O)CC1)c1ccccc1C,10.89,7.996
NC(=O)CC1CCCN(c2cncc(SCc3ccccc3)n2)C1 (stereo not given),19.05,8.522
[H][C@@]12CC[C@@]([H])(C1)[C@H](Nc1nc(-c3ccncc3)nc3c1cnn3C)C2,-,24.32
CN(C)C(=O)COc1ccccc1CNC1CCc2ncnn2C1 (stereo not given),16.09,0.6792
O=C1CCCCCN1Cc1ncnn1Cc1c(F)cccc1Cl,5.627,18.05
Cn1c(C(F)(F)F)nn(CCNC(=O)c2nc3ccccc3s2)c1=O,10.14,3.048
Cc1ccc(C(=O)Nc2cccc3c2C(=O)NC3)c(C)n1,15.86,20.46
Cn1cnc2c1C(C(=O)N1CCCO1)N(C(=O)c1ccccc1)CC2 (stereo not given),18.12,-5.388
CCOC(C)c1nc(Cn2cc(C)cn2)cs1 (stereo not given),8.871,5.676
CCCn1cnnc1CN(C)C(=O)C1CCCN(C2CCN(C)CC2)C1 (stereo not given),17.13,-14.79
CCCc1n[nH]c(C2CN(C(=O)c3cc4c(s3)CCC4)CCO2)n1 (stereo not given),15.49,-14.78
O=C(NCCCOCC1CCCO1)c1cccnc1N1CCCC1 (stereo not given),8.571,-14.94

The last 6 entries again:

| structure | LdMetRS | Mtb heat-shock |
|---|---|---|
| `Cc1ccc(C(=O)Nc2cccc3c2C(=O)NC3)c(C)n1` | 15.86 | 20.46 |
| `Cn1cnc2c1C(C(=O)N1CCCO1)N(C(=O)c1ccccc1)CC2` (stereo not given) | 18.12 | -5.388 |
| `CCOC(C)c1nc(Cn2cc(C)cn2)cs1` (stereo not given) | 8.871 | 5.676 |
| `CCCn1cnnc1CN(C)C(=O)C1CCCN(C2CCN(C)CC2)C1` (stereo not given) | 17.13 | -14.79 |
| `CCCc1n[nH]c(C2CN(C(=O)c3cc4c(s3)CCC4)CCO2)n1` (stereo not given) | 15.49 | -14.78 |
| `O=C(NCCCOCC1CCCO1)c1cccnc1N1CCCC1` (stereo not given) | 8.571 | -14.94 |

The values are deposited in ChEMBL (CHEMBL3988442, “University of Dundee, Small-Polar-MMV Screening Library” (2021)).